Data: the supplement of paper PMC10849652
Some of the results follow. Residues, ends and D or L forms follow the SMILES beside them. *: point of attachment. Cbz = O=C(OCc1ccccc1)*

Amino acid sequences for entries named in this document (tags omitted). A change or cut given only in a name is not applied to a line headed by its entry.
UniProt P47985: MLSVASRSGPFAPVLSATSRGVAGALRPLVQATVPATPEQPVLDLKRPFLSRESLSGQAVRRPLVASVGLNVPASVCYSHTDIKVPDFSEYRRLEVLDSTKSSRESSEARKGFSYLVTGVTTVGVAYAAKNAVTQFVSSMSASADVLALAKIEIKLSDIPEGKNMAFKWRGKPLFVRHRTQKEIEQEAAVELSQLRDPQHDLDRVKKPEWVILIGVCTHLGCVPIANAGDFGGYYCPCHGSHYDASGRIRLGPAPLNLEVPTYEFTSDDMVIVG
UniProt P40818: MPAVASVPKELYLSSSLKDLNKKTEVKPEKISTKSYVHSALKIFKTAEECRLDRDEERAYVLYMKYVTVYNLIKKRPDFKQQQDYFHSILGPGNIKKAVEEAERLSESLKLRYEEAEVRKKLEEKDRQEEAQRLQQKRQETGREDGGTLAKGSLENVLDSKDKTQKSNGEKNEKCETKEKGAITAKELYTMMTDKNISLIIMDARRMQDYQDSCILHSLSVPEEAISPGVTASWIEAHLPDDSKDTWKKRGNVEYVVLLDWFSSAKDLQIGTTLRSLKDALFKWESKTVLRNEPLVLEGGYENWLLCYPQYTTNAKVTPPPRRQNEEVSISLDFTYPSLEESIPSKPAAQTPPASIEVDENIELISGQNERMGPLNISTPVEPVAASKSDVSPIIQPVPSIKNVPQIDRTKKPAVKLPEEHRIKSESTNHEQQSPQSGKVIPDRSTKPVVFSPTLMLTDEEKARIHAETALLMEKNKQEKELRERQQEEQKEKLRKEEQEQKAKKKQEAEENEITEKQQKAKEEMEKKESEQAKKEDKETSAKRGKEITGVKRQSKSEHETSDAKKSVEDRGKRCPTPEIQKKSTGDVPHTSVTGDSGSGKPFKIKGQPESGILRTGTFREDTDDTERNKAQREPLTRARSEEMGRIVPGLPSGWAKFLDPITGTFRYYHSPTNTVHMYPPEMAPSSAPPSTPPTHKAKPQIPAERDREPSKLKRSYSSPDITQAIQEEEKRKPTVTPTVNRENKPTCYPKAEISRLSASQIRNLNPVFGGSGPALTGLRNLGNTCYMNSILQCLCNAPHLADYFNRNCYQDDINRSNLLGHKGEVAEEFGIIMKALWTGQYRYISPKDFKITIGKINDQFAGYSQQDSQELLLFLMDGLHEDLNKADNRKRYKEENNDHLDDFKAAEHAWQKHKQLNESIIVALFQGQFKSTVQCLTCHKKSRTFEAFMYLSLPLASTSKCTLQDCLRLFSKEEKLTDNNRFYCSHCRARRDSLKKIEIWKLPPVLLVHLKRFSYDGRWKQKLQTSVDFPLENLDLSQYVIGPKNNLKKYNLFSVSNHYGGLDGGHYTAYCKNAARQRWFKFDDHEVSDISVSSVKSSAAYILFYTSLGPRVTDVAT
UniProt Q96S82: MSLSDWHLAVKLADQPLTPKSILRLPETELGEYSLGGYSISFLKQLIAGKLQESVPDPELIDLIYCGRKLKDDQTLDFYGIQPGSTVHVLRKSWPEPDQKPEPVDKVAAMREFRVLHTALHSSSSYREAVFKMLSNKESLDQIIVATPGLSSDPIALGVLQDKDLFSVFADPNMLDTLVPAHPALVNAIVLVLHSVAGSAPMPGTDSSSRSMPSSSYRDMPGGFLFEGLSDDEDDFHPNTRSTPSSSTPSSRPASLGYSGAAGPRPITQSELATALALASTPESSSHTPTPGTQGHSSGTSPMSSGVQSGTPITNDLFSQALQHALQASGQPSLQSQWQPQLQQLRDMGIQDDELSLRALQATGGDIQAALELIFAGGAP
UniProt P11172: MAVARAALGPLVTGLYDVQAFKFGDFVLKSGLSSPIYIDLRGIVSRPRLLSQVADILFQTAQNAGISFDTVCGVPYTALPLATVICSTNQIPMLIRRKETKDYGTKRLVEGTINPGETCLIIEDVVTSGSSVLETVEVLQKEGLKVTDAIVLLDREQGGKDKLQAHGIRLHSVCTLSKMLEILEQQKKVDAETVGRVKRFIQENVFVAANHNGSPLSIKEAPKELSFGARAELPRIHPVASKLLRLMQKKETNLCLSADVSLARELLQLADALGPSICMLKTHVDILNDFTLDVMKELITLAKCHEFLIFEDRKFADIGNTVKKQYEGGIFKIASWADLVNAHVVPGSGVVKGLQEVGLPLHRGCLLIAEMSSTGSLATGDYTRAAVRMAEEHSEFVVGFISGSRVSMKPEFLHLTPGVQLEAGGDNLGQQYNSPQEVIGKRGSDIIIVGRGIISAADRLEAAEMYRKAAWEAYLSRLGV
UniProt Q96RL1: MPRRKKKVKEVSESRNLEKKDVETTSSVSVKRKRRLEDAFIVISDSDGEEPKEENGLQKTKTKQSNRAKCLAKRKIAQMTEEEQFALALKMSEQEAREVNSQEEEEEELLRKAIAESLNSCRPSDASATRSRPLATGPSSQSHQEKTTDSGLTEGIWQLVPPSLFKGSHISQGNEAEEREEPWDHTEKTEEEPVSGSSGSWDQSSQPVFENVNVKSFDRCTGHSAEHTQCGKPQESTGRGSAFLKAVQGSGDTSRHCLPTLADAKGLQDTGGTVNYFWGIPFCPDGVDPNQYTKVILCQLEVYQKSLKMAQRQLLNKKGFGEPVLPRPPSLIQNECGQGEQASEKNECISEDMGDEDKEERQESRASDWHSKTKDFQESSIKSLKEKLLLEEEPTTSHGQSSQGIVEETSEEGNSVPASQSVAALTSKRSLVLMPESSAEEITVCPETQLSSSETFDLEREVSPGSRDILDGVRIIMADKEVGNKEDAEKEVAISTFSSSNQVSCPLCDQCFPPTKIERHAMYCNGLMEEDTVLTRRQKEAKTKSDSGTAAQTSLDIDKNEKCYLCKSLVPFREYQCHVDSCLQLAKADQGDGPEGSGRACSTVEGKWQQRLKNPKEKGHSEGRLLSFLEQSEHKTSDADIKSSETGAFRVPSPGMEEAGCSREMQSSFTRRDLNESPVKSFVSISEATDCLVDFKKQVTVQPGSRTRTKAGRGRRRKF
UniProt Q92575: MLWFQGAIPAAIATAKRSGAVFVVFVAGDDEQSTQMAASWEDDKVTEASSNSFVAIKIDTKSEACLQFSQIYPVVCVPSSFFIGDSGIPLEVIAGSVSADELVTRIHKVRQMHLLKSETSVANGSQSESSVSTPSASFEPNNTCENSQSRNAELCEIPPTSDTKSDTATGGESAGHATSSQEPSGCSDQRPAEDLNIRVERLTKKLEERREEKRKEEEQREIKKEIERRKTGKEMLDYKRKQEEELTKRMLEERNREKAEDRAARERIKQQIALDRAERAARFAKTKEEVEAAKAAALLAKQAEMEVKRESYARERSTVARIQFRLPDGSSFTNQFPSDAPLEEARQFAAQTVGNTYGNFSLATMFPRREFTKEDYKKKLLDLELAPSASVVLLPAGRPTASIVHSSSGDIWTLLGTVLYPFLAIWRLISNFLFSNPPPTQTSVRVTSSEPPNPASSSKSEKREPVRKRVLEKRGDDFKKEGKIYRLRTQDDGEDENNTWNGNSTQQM
UniProt P61758, whole entry, looked up: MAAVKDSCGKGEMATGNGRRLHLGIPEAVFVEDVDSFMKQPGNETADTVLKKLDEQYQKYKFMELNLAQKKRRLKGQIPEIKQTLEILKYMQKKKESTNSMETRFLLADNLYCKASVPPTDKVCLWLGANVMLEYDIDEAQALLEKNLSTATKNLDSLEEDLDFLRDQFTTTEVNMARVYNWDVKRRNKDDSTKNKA
UniProt P63027, whole entry, looked up: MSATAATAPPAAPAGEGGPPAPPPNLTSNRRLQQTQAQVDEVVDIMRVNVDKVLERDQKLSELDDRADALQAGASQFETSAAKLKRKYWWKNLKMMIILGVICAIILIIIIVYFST
UniProt Q9H3U1: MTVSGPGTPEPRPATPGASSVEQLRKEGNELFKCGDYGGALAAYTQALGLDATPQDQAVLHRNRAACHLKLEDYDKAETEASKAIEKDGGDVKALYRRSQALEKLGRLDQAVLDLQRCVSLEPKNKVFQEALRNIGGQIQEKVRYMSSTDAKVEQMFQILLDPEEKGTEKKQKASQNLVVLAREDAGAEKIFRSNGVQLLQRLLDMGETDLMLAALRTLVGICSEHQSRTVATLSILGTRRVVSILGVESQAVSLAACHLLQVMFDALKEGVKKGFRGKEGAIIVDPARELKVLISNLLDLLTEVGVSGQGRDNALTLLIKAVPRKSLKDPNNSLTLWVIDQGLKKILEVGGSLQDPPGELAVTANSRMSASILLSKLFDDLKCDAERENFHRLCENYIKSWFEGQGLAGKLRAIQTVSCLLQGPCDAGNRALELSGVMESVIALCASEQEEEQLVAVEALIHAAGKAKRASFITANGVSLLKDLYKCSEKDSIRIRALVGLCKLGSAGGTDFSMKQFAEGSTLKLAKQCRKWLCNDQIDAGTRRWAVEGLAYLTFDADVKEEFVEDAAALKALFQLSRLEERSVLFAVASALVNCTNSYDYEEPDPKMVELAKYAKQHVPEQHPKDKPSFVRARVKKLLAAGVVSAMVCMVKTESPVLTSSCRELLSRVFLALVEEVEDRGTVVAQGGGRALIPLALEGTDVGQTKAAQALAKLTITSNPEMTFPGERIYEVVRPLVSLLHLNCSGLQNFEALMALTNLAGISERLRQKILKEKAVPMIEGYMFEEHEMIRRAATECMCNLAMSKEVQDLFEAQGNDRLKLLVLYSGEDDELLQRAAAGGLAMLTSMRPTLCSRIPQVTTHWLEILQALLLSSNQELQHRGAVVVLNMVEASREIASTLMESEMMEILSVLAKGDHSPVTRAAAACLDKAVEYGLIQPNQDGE
UniProt Q70CQ3: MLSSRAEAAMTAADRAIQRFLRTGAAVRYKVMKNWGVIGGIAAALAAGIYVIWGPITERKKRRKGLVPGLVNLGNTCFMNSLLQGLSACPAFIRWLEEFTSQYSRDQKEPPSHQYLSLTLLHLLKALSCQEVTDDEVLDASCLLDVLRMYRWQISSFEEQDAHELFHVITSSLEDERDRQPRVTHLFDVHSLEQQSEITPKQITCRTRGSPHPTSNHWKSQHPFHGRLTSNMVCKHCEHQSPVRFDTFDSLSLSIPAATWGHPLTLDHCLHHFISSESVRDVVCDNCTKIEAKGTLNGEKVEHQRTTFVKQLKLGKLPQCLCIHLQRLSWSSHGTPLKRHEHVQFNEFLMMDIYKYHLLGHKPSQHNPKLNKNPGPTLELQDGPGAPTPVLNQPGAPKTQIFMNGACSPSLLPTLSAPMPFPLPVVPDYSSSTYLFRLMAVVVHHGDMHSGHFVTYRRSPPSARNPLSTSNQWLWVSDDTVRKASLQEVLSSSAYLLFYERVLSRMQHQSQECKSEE
UniProt P26640: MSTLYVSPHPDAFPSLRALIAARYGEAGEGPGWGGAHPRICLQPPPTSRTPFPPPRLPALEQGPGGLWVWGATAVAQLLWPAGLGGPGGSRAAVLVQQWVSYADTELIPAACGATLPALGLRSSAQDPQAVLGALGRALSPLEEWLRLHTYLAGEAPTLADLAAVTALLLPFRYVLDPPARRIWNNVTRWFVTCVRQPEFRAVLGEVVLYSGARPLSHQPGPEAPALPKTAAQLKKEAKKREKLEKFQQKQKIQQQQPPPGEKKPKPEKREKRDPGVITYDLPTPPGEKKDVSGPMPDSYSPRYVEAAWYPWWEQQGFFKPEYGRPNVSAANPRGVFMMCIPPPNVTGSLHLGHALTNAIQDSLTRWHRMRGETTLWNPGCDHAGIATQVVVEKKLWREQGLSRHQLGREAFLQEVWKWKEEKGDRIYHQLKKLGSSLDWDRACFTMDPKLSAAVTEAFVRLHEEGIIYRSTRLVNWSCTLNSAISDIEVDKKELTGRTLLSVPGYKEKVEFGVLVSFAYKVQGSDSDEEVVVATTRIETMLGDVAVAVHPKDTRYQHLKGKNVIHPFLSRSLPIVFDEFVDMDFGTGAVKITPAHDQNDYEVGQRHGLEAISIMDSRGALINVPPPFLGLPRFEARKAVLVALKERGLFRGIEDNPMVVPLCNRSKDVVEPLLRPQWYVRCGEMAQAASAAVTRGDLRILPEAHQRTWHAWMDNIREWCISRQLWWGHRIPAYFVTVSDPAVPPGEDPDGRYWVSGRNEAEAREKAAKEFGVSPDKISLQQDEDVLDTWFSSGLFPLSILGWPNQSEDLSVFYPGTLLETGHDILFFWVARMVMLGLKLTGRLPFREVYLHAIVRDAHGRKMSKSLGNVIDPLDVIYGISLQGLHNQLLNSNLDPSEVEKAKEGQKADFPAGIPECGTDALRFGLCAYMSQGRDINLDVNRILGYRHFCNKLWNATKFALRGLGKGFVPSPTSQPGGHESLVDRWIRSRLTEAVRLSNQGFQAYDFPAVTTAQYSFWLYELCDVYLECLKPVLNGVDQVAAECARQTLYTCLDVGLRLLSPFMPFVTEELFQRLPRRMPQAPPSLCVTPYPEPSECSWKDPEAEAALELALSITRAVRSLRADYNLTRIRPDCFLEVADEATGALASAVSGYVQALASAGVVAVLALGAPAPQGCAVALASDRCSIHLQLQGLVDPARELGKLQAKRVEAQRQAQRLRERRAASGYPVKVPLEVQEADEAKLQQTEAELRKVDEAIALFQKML

Assays:
Test in all cases: log2 fold change, soluble protein after heating vs DMSO (PISA); higher = thermal stabilisation; K562 cells, 10 uM, 30 min; active = over 0.2 and 3.5 SD of the protein, either way, in both replicates (recomputed)
IRAK-1-4 Inhibitor I = compound: C1COCCN1CCN2C3=CC=CC=C3N=C2NC(=O)C4=CC(=CC=C4)[N+](=O)[O-] [IRAK-1-4 Inhibitor I]
How it was run: (§1)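 K562 cells at 2×10^6 cells/mL were treated with 10 μM compound for 30 min. Aliquots were heated for 3 min across 48°C-58°C, pooled, and extracted in PBS with 0.5% NP-40 at 4°C; soluble protein was the supernatant after 21,000xg for 90 min. Soluble protein was quantified by TMTpro 16plex LC-MS/MS with channel sums equalised, and reported as log2 fold change in thermal stability against DMSO controls, with values from duplicates.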

ibrutinib = compound: C=CC(=O)N1CCC[C@@H](n2nc(-c3ccc(Oc4ccccc4)cc3)c3c(N)ncnc32)C1 [ibrutinib]
How it was run: as §1

[1] = compound: CC(=O)c1cnc2ccc(-c3cc(Cl)c(O)c(Cl)c3)nc2c1N[C@H]1CC[C@H](CN(C)C)CC1
How it was run: as §1

ralimetinib = compound: CC(C)(C)Cn1c(N)nc2ccc(-c3[nH]c(C(C)(C)C)nc3-c3ccc(F)cc3)nc21 [ralimetinib]
How it was run: as §1

[2] = compound: CC(C)(O)CC(=O)NCCn1ccc2ncnc(Nc3ccc(Oc4cccc(C(F)(F)F)c4)c(Cl)c3)c21
How it was run: as §1

[3] = compound: CC(C)C1=C2N=C(C=C(N2N=C1)NCC3=CC=CC=C3)NCCCCCCN
How it was run: as §1

[4] = compound: CC(C)C[C@@H](C=O)NC(=O)[C@H](CC(C)C)NC(=O)[C@H](CC(C)C)NC(=O)OCc1ccccc1
How it was run: as §1

pinometostat = compound: CC(C)N(C[C@H]1O[C@@H](n2cnc3c(N)ncnc32)[C@H](O)[C@@H]1O)[C@H]1C[C@@H](CCc2nc3cc(C(C)(C)C)ccc3[nH]2)C1 [pinometostat]
How it was run: as §1

[5] = compound: CC1=C(C(CC(=O)N1)C2=CC=C(C=C2)C(F)(F)F)C(=O)NC3=C(C=C4C(=C3)C=NN4)F
How it was run: as §1

[6] = compound: CC1=C(C2=C(C=C1)C(=O)C3=CC=CC=C3N2CCCN)C
How it was run: as §1

Measured: log2 fold change

USP1 (UniProt O94782)
inactive: IRAK-1-4 Inhibitor I -0.029 | ibrutinib 0.04 | [1] -0.154 | ralimetinib 0.022 | [2] -0.037 | [3] -0.066 | [4] 0.25 | pinometostat 0.116 | [5] 0.092 | [6] -0.245

UQCRFS1 (UniProt P47985)
inactive: IRAK-1-4 Inhibitor I 0.032 | ibrutinib -0.026 | [1] 0.056 | ralimetinib -0.016 | [2] -0.047 | [3] 0.045 | [4] -0.032 | pinometostat -0.083 | [5] -0.003 | [6] 0.004

UCK2 (UniProt Q9BZX2)
inactive: IRAK-1-4 Inhibitor I -0.004 | ibrutinib 0.03 | [1] -0.064 | ralimetinib -0.01 | [2] 0.009 | [3] 0.022 | [4] -0.033 | pinometostat -0.014 | [5] 0.002 | [6] 0.04

USP39 (UniProt Q53GS9)
inactive: IRAK-1-4 Inhibitor I -0.015 | ibrutinib -0.008 | [1] -0.061 | ralimetinib 0.023 | [2] 0.046 | [3] 0.1 | [4] 0.04 | pinometostat 0.081 | [5] -0.011 | [6] 0.076

USP8 (UniProt P40818)
inactive: IRAK-1-4 Inhibitor I 0.043 | ibrutinib 0.05 | [1] -0.123 | ralimetinib 0.058 | [2] -0.08 | [3] -0.064 | [4] 0.127 | pinometostat 0.153 | [5] -0.034 | [6] 0.064

UPRT (UniProt Q96BW1)
inactive: IRAK-1-4 Inhibitor I -0.041 | ibrutinib 0.03 | [1] -0.154 | ralimetinib 0.012 | [2] -0.088 | [3] 0.006 | [4] -0.125 | pinometostat -0.009 | [5] 0.057

UBL7 (UniProt Q96S82)
inactive: IRAK-1-4 Inhibitor I -0.064 | ibrutinib -0.088 | [1] -0.006 | ralimetinib -0.049 | [2] -0.065 | [3] -0.111 | [4] 0.066 | pinometostat -0.07 | [5] -0.029 | [6] 0.196

VAMP4 (UniProt O75379)
inactive: IRAK-1-4 Inhibitor I 0.04 | ibrutinib 0.024 | [1] 0.034 | ralimetinib -0.081 | [2] 0.007 | [3] -0.012 | [4] 0.041 | pinometostat -0.006 | [5] -0.024 | [6] -0.058

UQCRB (UniProt P14927)
inactive: IRAK-1-4 Inhibitor I 0.042 | ibrutinib -0.01 | [1] -0.023 | ralimetinib -0.055 | [2] -0.008 | [3] 0.073 | [4] -0.012 | pinometostat -0.069 | [5] 0.001 | [6] 0.036

UMPS (UniProt P11172)
inactive: IRAK-1-4 Inhibitor I 0.004 | ibrutinib 0.015 | [1] 0.007 | ralimetinib -0.033 | [2] -0.069 | [3] 0.032 | [4] -0.033 | pinometostat -0.042 | [5] -0.008 | [6] 0.007

7 neighbouring records already listed:
UCK2 (UniProt Q9BZX2)
inactive: IRAK-1-4 Inhibitor I -0.004 | ibrutinib 0.03 | [1] -0.064 | ralimetinib -0.01 | [2] 0.009 | [3] 0.022 | [4] -0.033 | pinometostat -0.014 | [5] 0.002 | [6] 0.04

USP39 (UniProt Q53GS9)
inactive: IRAK-1-4 Inhibitor I -0.015 | ibrutinib -0.008 | [1] -0.061 | ralimetinib 0.023 | [2] 0.046 | [3] 0.1 | [4] 0.04 | pinometostat 0.081 | [5] -0.011 | [6] 0.076

USP8 (UniProt P40818)
inactive: IRAK-1-4 Inhibitor I 0.043 | ibrutinib 0.05 | [1] -0.123 | ralimetinib 0.058 | [2] -0.08 | [3] -0.064 | [4] 0.127 | pinometostat 0.153 | [5] -0.034 | [6] 0.064

UPRT (UniProt Q96BW1)
inactive: IRAK-1-4 Inhibitor I -0.041 | ibrutinib 0.03 | [1] -0.154 | ralimetinib 0.012 | [2] -0.088 | [3] 0.006 | [4] -0.125 | pinometostat -0.009 | [5] 0.057

UBL7 (UniProt Q96S82)
inactive: IRAK-1-4 Inhibitor I -0.064 | ibrutinib -0.088 | [1] -0.006 | ralimetinib -0.049 | [2] -0.065 | [3] -0.111 | [4] 0.066 | pinometostat -0.07 | [5] -0.029 | [6] 0.196

VAMP4 (UniProt O75379)
inactive: IRAK-1-4 Inhibitor I 0.04 | ibrutinib 0.024 | [1] 0.034 | ralimetinib -0.081 | [2] 0.007 | [3] -0.012 | [4] 0.041 | pinometostat -0.006 | [5] -0.024 | [6] -0.058

UQCRB (UniProt P14927)
inactive: IRAK-1-4 Inhibitor I 0.042 | ibrutinib -0.01 | [1] -0.023 | ralimetinib -0.055 | [2] -0.008 | [3] 0.073 | [4] -0.012 | pinometostat -0.069 | [5] 0.001 | [6] 0.036

More entries follow.

URGCP (UniProt Q8TCY9)
inactive: IRAK-1-4 Inhibitor I -0.037 | ibrutinib 0.01 | [1] 0.004 | ralimetinib 0.164 | [2] -0.084 | [3] -0.024 | [4] 0.072 | pinometostat 0.078 | [5] -0.008 | [6] -0.128

UIMC1 (UniProt Q96RL1)
inactive: IRAK-1-4 Inhibitor I -0.08 | ibrutinib 0 | [1] 0.032 | ralimetinib 0.139 | [2] 0.169 | [3] -0.015 | [4] 0.172 | pinometostat 0.129 | [5] -0.006 | [6] 0.196

USP5 (UniProt P45974)
inactive: IRAK-1-4 Inhibitor I 0.016 | ibrutinib -0.018 | [1] -0.025 | ralimetinib -0.053 | [2] 0.002 | [3] 0.008 | [4] -0.015 | pinometostat -0.016 | [5] -0.003 | [6] -0.069

UFSP2 (UniProt Q9NUQ7)
inactive: IRAK-1-4 Inhibitor I 0.034 | ibrutinib -0.021 | [1] -0.092 | ralimetinib -0.018 | [2] -0.057 | [3] 0.046 | [4] 0.065 | pinometostat 0.037 | [5] -0.045 | [6] 0.041

UBXN7 (UniProt O94888)
inactive: IRAK-1-4 Inhibitor I 0.058 | ibrutinib -0.001 | [1] 0.001 | ralimetinib -0.029 | [2] -0.018 | [3] 0.015 | [4] 0.015 | pinometostat 0.008 | [5] -0.002 | [6] -0.056

UBXN4 (UniProt Q92575)
inactive: IRAK-1-4 Inhibitor I -0.024 | ibrutinib -0.011 | [1] -0.009 | ralimetinib -0.031 | [2] -0.087 | [3] -0.091 | [4] -0.039 | pinometostat 0.177 | [5] 0.007 | [6] 0.046

VBP1 (UniProt P61758)
inactive: IRAK-1-4 Inhibitor I 0.055 | ibrutinib -0.004 | [1] 0 | ralimetinib -0.04 | [2] 0.004 | [3] 0.069 | [4] 0.016 | pinometostat -0.015 | [5] 0.01 | [6] -0.029

VASP (UniProt P50552)
inactive: IRAK-1-4 Inhibitor I -0.245 | ibrutinib -0.076 | [1] -0.045 | ralimetinib 0.021 | [2] -0.137 | [3] -0.076 | [4] 0.096 | pinometostat 0.132 | [5] -0.01 | [6] 0.123

UTP15 (UniProt Q8TED0)
inactive: IRAK-1-4 Inhibitor I -0.145 | ibrutinib 0.023 | [1] 0.115 | ralimetinib 0.115 | [2] 0.058 | [3] 0.197 | [4] 0.103 | pinometostat 0.326 | [5] 0.041 | [6] -0.073

USP47 (UniProt Q96K76)
inactive: IRAK-1-4 Inhibitor I -0.087 | ibrutinib -0.004 | [1] 0.031 | ralimetinib 0.085 | [2] 0.005 | [3] -0.307 | [4] 0.009 | pinometostat 0.222 | [5] 0.045 | [6] 0.029

UGT8 (UniProt Q16880)
inactive: IRAK-1-4 Inhibitor I -0.043 | ibrutinib 0.014 | [1] 0.04 | ralimetinib 0.088 | [2] 0.323 | [3] 0.178 | [4] -0.011 | pinometostat 0.106 | [5] -0.138 | [6] 0.054

VAMP2 (UniProt P63027)
inactive: IRAK-1-4 Inhibitor I 0.072 | ibrutinib 0.051 | [1] 0.064 | ralimetinib 0.02 | [2] -0.044 | [3] -0.063 | [4] -0.001 | pinometostat -0.1 | [5] 0.022 | [6] 0.036

UPF2 (UniProt Q9HAU5)
inactive: IRAK-1-4 Inhibitor I -0.163 | ibrutinib 0.008 | [1] 0.066 | ralimetinib 0.166 | [2] 0.018 | [3] -0.23 | [4] 0.124 | pinometostat 0.321 | [5] -0.034 | [6] -0.093

UNC13D isoform 3 (UniProt Q70J99)
inactive: IRAK-1-4 Inhibitor I -0.129 | ibrutinib -0.028 | [1] -0.08 | ralimetinib 0.271 | [2] -0.025 | [3] -0.343 | [4] 0.21 | pinometostat 0.301 | [5] -0.06 | [6] -0.071

UNC45A (UniProt Q9H3U1)
inactive: IRAK-1-4 Inhibitor I -0.145 | ibrutinib -0.054 | [1] 0.045 | ralimetinib 0.114 | [2] -0.07 | [3] -0.182 | [4] 0.064 | pinometostat 0.132 | [5] -0.027 | [6] 0.032

USP30 (UniProt Q70CQ3)
inactive: IRAK-1-4 Inhibitor I 0.039 | ibrutinib -0.004 | [1] -0.051 | ralimetinib 0.064 | [2] -0.121 | [3] 0.29 | [4] 0.278 | pinometostat 0.001 | [5] -0.043 | [6] -0.044

USF1 (UniProt P22415)
inactive: IRAK-1-4 Inhibitor I 0.007 | ibrutinib -0.001 | [1] -0.065 | ralimetinib 0.064 | [2] 0.112 | [3] -0.073 | [4] 0.044 | pinometostat 0.022 | [5] 0.087

UCHL3 (UniProt P15374)
inactive: IRAK-1-4 Inhibitor I 0.043 | ibrutinib 0.001 | [1] 0.003 | ralimetinib -0.078 | [2] -0.008 | [3] -0.007 | [4] 0.01 | pinometostat -0.01 | [5] 0.049 | [6] 0.047

VARS (UniProt P26640)
inactive: IRAK-1-4 Inhibitor I -0.038 | ibrutinib -0.01 | [1] 0.05 | ralimetinib 0.056 | [2] -0.026 | [3] -0.078 | [4] 0.016 | pinometostat 0.032 | [5] 0.004 | [6] 0.044

UBXN1 (UniProt Q04323)
inactive: IRAK-1-4 Inhibitor I 0.015 | ibrutinib -0.028 | [1] -0.003 | ralimetinib -0.036 | [2] -0.028 | [3] -0.047 | [4] 0.056 | pinometostat 0.003 | [5] 0.002 | [6] 0.046
